Reference: PubChem BioAssay AID1259254 (NCATS, 2017)
Aim: 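Gene knock-downs that lead to re-replication, shown by excess G2 DNA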 (primary screen). System: human HCT116 colorectal cancer cells. Reagent: single siRNA against human genes. Duration: 3 days. Detection: 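Imaged Hoechst DNA stain sorts each cell into a cycle phase by DNA amount; per plate, G2 fraction set to 0% for non-targeting and 100% for GMNN siRNA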. Scale: G2 robust z-score and G2 cells, % of GMNN control: higher = more G2 cells, more excess DNA replication; raw share of cells in G2: higher = larger share of cells with G2 DNA content. Hit rule: 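An siRNA counts as active if its G2 robust z-score lies at least 5 MADs above the screen median; here such calls match roughly 38% of GMNN control or more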.
Shown is a random part of about 59,000 reagents. About 1,550 of all reagents (2.6%) were called active. 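G2 share is only a proxy for re-replication; each gene was hit by three separate siRNAs, and active genes were retested.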 The raw values are shown without normalisation. The numbers tell different reagents against one gene apart. The record does not give: the amount of reagent.

| target gene | siRNA no. | G2 robust z-score | G2 cells, % of GMNN control | raw share of cells in G2 (%) | call |
| --- | --- | --- | --- | --- | --- |
| GHRL (ghrelin and obestatin prepropeptide) | 1 | -0.367 | 0.384 | 3.47 | inactive |
| GHRL (ghrelin and obestatin prepropeptide) | 2 | -0.788 | -2.58 | 1.94 | inactive |
| GHRL (ghrelin and obestatin prepropeptide) | 3 | -0.256 | 1.17 | 4.71 | inactive |
| GJC2 (gap junction protein gamma 2) | 1 | 3.08 | 24.6 | 17 | inactive |
| GJC2 (gap junction protein gamma 2) | 2 | -0.597 | -1.23 | 3.25 | inactive |
| GJC2 (gap junction protein gamma 2) | 3 | 0.566 | 6.95 | 5.25 | inactive |
| ATP5MC3 (ATP synthase membrane subunit c locus 3) | 1 | 1.96 | 16.8 | 10.4 | inactive |
| ATP5MC3 (ATP synthase membrane subunit c locus 3) | 2 | 1.06 | 10.4 | 8.79 | inactive |
| ATP5MC3 (ATP synthase membrane subunit c locus 3) | 3 | -1.09 | -4.71 | 2.24 | inactive |
| PUS10 (pseudouridine synthase 10) | 1 | 0.179 | 4.23 | 5.24 | inactive |
| PUS10 (pseudouridine synthase 10) | 2 | -0.131 | 2.05 | 3.55 | inactive |
| PUS10 (pseudouridine synthase 10) | 3 | -0.65 | -1.6 | 2.51 | inactive |
| LGALS2 (galectin 2) | 1 | -0.898 | -3.35 | 2.9 | inactive |
| LGALS2 (galectin 2) | 2 | 0.705 | 7.93 | 6.22 | inactive |
| LGALS2 (galectin 2) | 3 | 3.28 | 26 | 16 | inactive |
| MMP3 (matrix metallopeptidase 3) | 1 | 1.87 | 16.1 | 11.2 | inactive |
| MMP3 (matrix metallopeptidase 3) | 2 | -0.787 | -2.57 | 4 | inactive |
| MMP3 (matrix metallopeptidase 3) | 3 | -0.0619 | 2.53 | 4.85 | inactive |
| PRSS35 (serine protease 35) | 1 | -0.703 | -1.98 | 3.52 | inactive |
| PRSS35 (serine protease 35) | 2 | 2.28 | 19 | 13.6 | inactive |
| PRSS35 (serine protease 35) | 3 | -1.06 | -4.52 | 2.99 | inactive |
| METTL1 (methyltransferase 1, tRNA methylguanosine) | 1 | -1.01 | -4.16 | 3.75 | inactive |
| METTL1 (methyltransferase 1, tRNA methylguanosine) | 2 | 1.09 | 10.6 | 6.7 | inactive |
| METTL1 (methyltransferase 1, tRNA methylguanosine) | 3 | -0.467 | -0.321 | 5.34 | inactive |

In a second layout: entries from further up
GHRL (ghrelin and obestatin prepropeptide) #3
- G2 robust z-score: -0.256
- G2 cells, % of GMNN control: 1.17
- raw share of cells in G2 (%): 4.71
- call: inactive

GJC2 (gap junction protein gamma 2) #1
- G2 robust z-score: 3.08
- G2 cells, % of GMNN control: 24.6
- raw share of cells in G2 (%): 17
- call: inactive

GJC2 (gap junction protein gamma 2) #2
- G2 robust z-score: -0.597
- G2 cells, % of GMNN control: -1.23
- raw share of cells in G2 (%): 3.25
- call: inactive

GJC2 (gap junction protein gamma 2) #3
- G2 robust z-score: 0.566
- G2 cells, % of GMNN control: 6.95
- raw share of cells in G2 (%): 5.25
- call: inactive

ATP5MC3 (ATP synthase membrane subunit c locus 3) #1
- G2 robust z-score: 1.96
- G2 cells, % of GMNN control: 16.8
- raw share of cells in G2 (%): 10.4
- call: inactive

ATP5MC3 (ATP synthase membrane subunit c locus 3) #2
- G2 robust z-score: 1.06
- G2 cells, % of GMNN control: 10.4
- raw share of cells in G2 (%): 8.79
- call: inactive

ATP5MC3 (ATP synthase membrane subunit c locus 3) #3
- G2 robust z-score: -1.09
- G2 cells, % of GMNN control: -4.71
- raw share of cells in G2 (%): 2.24
- call: inactive

PUS10 (pseudouridine synthase 10) #1
- G2 robust z-score: 0.179
- G2 cells, % of GMNN control: 4.23
- raw share of cells in G2 (%): 5.24
- call: inactive

PUS10 (pseudouridine synthase 10) #2
- G2 robust z-score: -0.131
- G2 cells, % of GMNN control: 2.05
- raw share of cells in G2 (%): 3.55
- call: inactive

PUS10 (pseudouridine synthase 10) #3
- G2 robust z-score: -0.65
- G2 cells, % of GMNN control: -1.6
- raw share of cells in G2 (%): 2.51
- call: inactive

LGALS2 (galectin 2) #1
- G2 robust z-score: -0.898
- G2 cells, % of GMNN control: -3.35
- raw share of cells in G2 (%): 2.9
- call: inactive

Continued:
| target gene | siRNA no. | G2 robust z-score | G2 cells, % of GMNN control | raw share of cells in G2 (%) | call |
| --- | --- | --- | --- | --- | --- |
| C16orf78 (chromosome 16 open reading frame 78) | 1 | 0.0142 | 3.07 | 5.32 | inactive |
| C16orf78 (chromosome 16 open reading frame 78) | 2 | -0.357 | 0.456 | 3.47 | inactive |
| C16orf78 (chromosome 16 open reading frame 78) | 3 | -0.4 | 0.151 | 1.86 | inactive |
| CCDC82 (coiled-coil domain containing 82) | 1 | -0.792 | -2.61 | 3.36 | inactive |
| CCDC82 (coiled-coil domain containing 82) | 2 | -0.186 | 1.66 | 5.03 | inactive |
| CCDC82 (coiled-coil domain containing 82) | 3 | -1.03 | -4.27 | 1.21 | inactive |
| BRWD1 (bromodomain and WD repeat domain containing 1) | 1 | 0.549 | 6.83 | 5.45 | inactive |
| BRWD1 (bromodomain and WD repeat domain containing 1) | 2 | 0.828 | 8.79 | 6.75 | inactive |
| BRWD1 (bromodomain and WD repeat domain containing 1) | 3 | 0.153 | 4.04 | 5.97 | inactive |
| REC8 (REC8 meiotic cohesin complex component) | 1 | 0.448 | 6.12 | 8.1 | inactive |
| REC8 (REC8 meiotic cohesin complex component) | 2 | -0.586 | -1.15 | 3.46 | inactive |
| REC8 (REC8 meiotic cohesin complex component) | 3 | 0.957 | 9.7 | 6.94 | inactive |
| FBXO34 (F-box protein 34) | 1 | 1.48 | 13.4 | 9.67 | inactive |
| FBXO34 (F-box protein 34) | 2 | 0.507 | 6.53 | 6.85 | inactive |
| FBXO34 (F-box protein 34) | 3 | 0.0899 | 3.6 | 4.29 | inactive |
| TICAM2 (TIR domain containing adaptor molecule 2) | 1 | -0.923 | -3.53 | 4.38 | inactive |
| TICAM2 (TIR domain containing adaptor molecule 2) | 2 | 5.3 | 40.3 | 20.7 | active |
| TICAM2 (TIR domain containing adaptor molecule 2) | 3 | -1.01 | -4.12 | 2.78 | inactive |
| RUFY3 (RUN and FYVE domain containing 3) | 1 | -0.00444 | 2.94 | 6.14 | inactive |
| RUFY3 (RUN and FYVE domain containing 3) | 2 | 1.49 | 13.4 | 9.67 | inactive |
| RUFY3 (RUN and FYVE domain containing 3) | 3 | 0.895 | 9.27 | 6.64 | inactive |
| CCDC17 (coiled-coil domain containing 17) | 1 | 0.00725 | 3.02 | 4.84 | inactive |
| CCDC17 (coiled-coil domain containing 17) | 2 | 0.64 | 7.47 | 5.22 | inactive |
| CCDC17 (coiled-coil domain containing 17) | 3 | 0.418 | 5.91 | 5.13 | inactive |
| FGFR4 (fibroblast growth factor receptor 4) | 1 | 0.17 | 4.16 | 6.81 | inactive |
| FGFR4 (fibroblast growth factor receptor 4) | 2 | -1.09 | -4.71 | 4.05 | inactive |
| FGFR4 (fibroblast growth factor receptor 4) | 3 | -1.19 | -5.37 | 2.13 | inactive |
| RP1L1 (RP1 like 1) | 1 | 3.3 | 26.2 | 14.6 | inactive |
| RP1L1 (RP1 like 1) | 2 | -0.838 | -2.93 | 2.46 | inactive |
| RP1L1 (RP1 like 1) | 3 | -0.414 | 0.0548 | 1.83 | inactive |
| TMC2 (transmembrane channel like 2) | 1 | -0.385 | 0.255 | 4.19 | inactive |
| TMC2 (transmembrane channel like 2) | 2 | -0.387 | 0.243 | 3.4 | inactive |
| TMC2 (transmembrane channel like 2) | 3 | 0.48 | 6.35 | 3.67 | inactive |
| SIRT2 (sirtuin 2) | 1 | -0.152 | 1.9 | 4.52 | inactive |
| SIRT2 (sirtuin 2) | 2 | 0.378 | 5.63 | 8.63 | inactive |
| SIRT2 (sirtuin 2) | 3 | -1.17 | -5.27 | 2.39 | inactive |
| KCNJ6 (potassium inwardly rectifying channel subfamily J member 6) | 1 | -0.496 | -0.522 | 5.1 | inactive |
| KCNJ6 (potassium inwardly rectifying channel subfamily J member 6) | 2 | 0.658 | 7.6 | 7.35 | inactive |
| KCNJ6 (potassium inwardly rectifying channel subfamily J member 6) | 3 | 2.1 | 17.8 | 11.3 | inactive |
| AMER2 (APC membrane recruitment protein 2) | 1 | 1.11 | 10.7 | 7.47 | inactive |
| AMER2 (APC membrane recruitment protein 2) | 2 | -0.409 | 0.0932 | 3.16 | inactive |
| AMER2 (APC membrane recruitment protein 2) | 3 | 0.508 | 6.54 | 5.28 | inactive |
| FAM162A (family with sequence similarity 162 member A) | 1 | -0.254 | 1.18 | 4.86 | inactive |
| FAM162A (family with sequence similarity 162 member A) | 2 | -0.634 | -1.49 | 3.29 | inactive |
| FAM162A (family with sequence similarity 162 member A) | 3 | -0.801 | -2.67 | 2.37 | inactive |
